Measurements reported in publication PMC11222469.
Results are given in words; binding and its absence hold for the method and conditions named. Binding seen in cells or lysates may run through a third protein. Some results given as binding are weak or reduced against the parent protein; the word gives no strength. Tags and fused reporters may be left off the sequences shown.

Target: FLAG-tagged DCAF15 (DDB1- and Cul4-Associated Factor 15) (human) (UniProt Q66K64)
Experiment: co-IP; FLAG-immunoprecipitation from HEK293T cells transiently transfected with FLAG-DCAF15, HA-SMC1A, HA-PDS5A and HA-CDCA5, before an in vitro ubiquitination assay; Western blot

binding: binds
B1: HA-PDS5A (protein, UniProt Q29RF7 1-1337)
chain: MDFTAQPKPATALCGVVSADGKIAYPPGVKEITDKITTDEMIKRLKMVVKTFMDMDQDSEDEKQQYLPLALHLASEFFLRNPNKDVRLLVACCLADIFRIYAPEAPYTSHDKLKDIFLFITRQLKGLEDTKSPQFNRYFYLLENLAWVKSYNICFELEDCNEIFIQLFRTLFSVINNSHNKKVQMHMLDLMSSIIMEGDGVTQELLDSILINLIPAHKNLNKQSFDLAKVLLKRTVQTIEACIANFFNQVLVLGRSSVSDLSEHVFDLIQELFAIDPHLLLSVMPQLEFKLKSNDGEERLAVVRLLAKLFGSKDSDLATQNRPLWQCFLGRFNDIHVPVRLESVKFASHCLMNHPDLAKDLTEYLKVRSHDPEEAIRHDVIVTIITAAKRDLALVNDQLLGFVRERTLDKRWRVRKEAMMGLAQLYKKYCLHGEAGKEAAEKVSWIKDKLLHIYYQNSIDDKLLVEKIFAQYLVPHNLETEERMKCLYYLYASLDPNAVKALNEMWKCQNMLRSHVRELLDLHKQPTSEANCSAMFGKLMTIAKNLPDPGKAQDFVKKFNQVLGDDEKLRSQLELLISPTCSCKQADICVREIARKLANPKQPTNPFLEMVKFLLERIAPVHIDSEAISALVKLMNKSIEGTADDEEEGVSPDTAIRSGLELLKVLSFTHPTSFHSAETYESLLQCLRMEDDKVAEAAIQIFRNTGHKIETDLPQIRSTLIPILHQKAKRGTPHQAKQAVHCIHAIFTNKEVQLAQIFEPLSRSLNADVPEQLITPLVSLGHISMLAPDQFASPMKSVVANFIVKDLLMNDRSTGEKNGKLWSPDEEVSPEVLAKVQAIKLLVRWLLGMKNNQSKSANSTLRLLSAMLVSEGDLTEQKRISKSDMSRLRLAAGSAIMKLAQEPCYHEIITPEQFQLCALVINDECYQVRQIFAQKLHKALVKLLLPLEYMAIFALCAKDPVKERRAHARQCLLKNISIRREYIKQNPMATEKLLSLLPEYVVPYMIHLLAHDPDFTRSQDVDQLRDIKECLWFMLEVLMTKNENNSHAFMKKMAENIKLTRDAQSPDESKTNEKLYTVCDVALCVINSKSALCNADSPKDPVLPMKFFTQPEKDFCNDKSYISEETRVLLLTGKPKPAGVLGAVNKPLSATGRKPYVRSTGTETGSNINVNSELNPSTGNRSREQSSEAAETGVSENEENPVRIISVTPVKNIDPVKNKEINSDQATQGNISSDRGKKRTVTAAGAENIQQKTDEKVDESGPPAPSKPRRGRRPKSESQGNATKNDDLNKPINKGRKRAAVGQESPGGLEAGNAKAPKLQDLAKKAAPAERQIDLQR
